What follows are compounds tested on E. coli D31 (assay: Growth inhibition (broth microdilution), E. coli D31). Conditions: Table 3; ratio of HD50 to IC50.
Type: cell-based, Escherichia coli
Text: The antimicrobial activity of each peptide can be tested following standard broth microdilution protocols recommended by the National Committee for Clinical Laboratory Standard. Multidrug-resistant Staphylococcus aureus strain (ATCC BAA-44) and Acinetobacter baumannii (ATCC BAA-747) can be used in this study, as well as Ampicillin- and streptomycin-resistant Escherichia coli (D31), obtained from the E. coli Genetic Resource Center (Yale University, New Haven, Conn.). Bacteria can be grown overnight in Tryptic Soy broth at 37° C. Then, cultures are diluted in Mueller-Hinton broth to a final concentration range of 2×10^4 to 2×10^5 CFU/ml. Bacterial inocula are incubated at 37° C. in phosphate-buffered saline (PBS) buffer (pH7.2) with various dilutions of peptide stock. The 18-hour absorbance data are used to calculate the percentage of inhibition for each sample by comparison with the absorbance of cultures without sample. Bacterial growth is measured by turbidity as optical density at 600 nm (OD600), using a Genesys 5 Spectrophotometer (Rochester, N.Y.) or equivalent instrument. All assays can be carried out in triplicate. The concentration of peptide that results in 50% inhibition of growth is recorded as the IC50. In addition the concentration of agents needed can be monitored to reduce the bacterial population by three logs, IC99.9. This is a more rigorous indicator of the amount needed to prevent an infection.
The antimicrobial activity of each triazine compound was tested by following standard broth microdilution protocols recommended by the National Committee for Clinical Laboratory Standard. All compounds were initially tested against Bacillus subtilis (ATCC 6633; Rockville, Md.). Bacteria were grown in Mueller Hinton Broth (MHB) at 37° C. for overnight. Then, cultures were diluted in MHB to a final concentration of 2×10^4 to 2×10^5 CFU/mL. Bacterial inocula were incubated at 37° C. in PBS buffer (pH 7.2) with varying concentrations of 2-fold dilution of triazine stocks. The 18-hour absorbance data were used to calculate the percent inhibition for each sample by comparing with the absorbance of cultures without triazine compounds. Bacterial growth was measured by turbidity as optical density at 600 nm using a Genesys 5 Spectrophotometer (Rochester, N.Y.).

| Compound | E. coli HI |
| --- | --- |
| N=C(N)NCCNc1nc(NCCc2c[nH]c3ccccc23)nc(NCCc2c[nH]c3ccccc23)n1 [TZ-WRW] | 10.6 |
| NCCCNc1nc(NCCc2c[nH]c3ccccc23)nc(NCCc2c[nH]c3ccccc23)n1 [TZ-WKW] | 14.1 |
| CCCCN(CCCC)CCCNc1nc(NCCc2c[nH]c3ccccc23)nc(NCCc2c[nH]c3ccccc23)n1 [TZ-WK(Bu)2W] | 4.3 |

Same assay, conditions: ratio of HD50 to MIC50, E. coli D31

| Compound | HI |
| --- | --- |
| CCCCN(CCCC)CCCNc1nc(NCc2ccccc2)nc(NCc2cccc3ccccc23)n1 [TN4] | 11.77 |
| CCCCN(CCCC)CCCNc1nc(NCc2ccccc2)nc(Nc2cccc3ccccc23)n1 [TN2] | 31.1 |
| NCCCCNc1nc(NCc2ccccc2)nc(NCc2cccc3ccccc23)n1 [TN5] | 35.26 |
| NCCCCNc1nc(NCc2ccccc2)nc(Nc2cccc3ccccc23)n1 [TN3] | 22.5 |

Source: patent publication US9273015B2, “s-Triazine compounds, pharmaceutical compositions and methods of using the same” (NEW YORK UNIVERSITY, priority 2010, dated 2016)
